Assay results: publication doi:10.1101/2022.03.08.483537
These are yes or no findings as the source states them, for the method shown. In cells and extracts the contact can be indirect. Some binding calls cover weakened binding; strength is not graded here.

Chains of the proteins cited; added tags and fusions are not shown.
UniProt Q9WTL8: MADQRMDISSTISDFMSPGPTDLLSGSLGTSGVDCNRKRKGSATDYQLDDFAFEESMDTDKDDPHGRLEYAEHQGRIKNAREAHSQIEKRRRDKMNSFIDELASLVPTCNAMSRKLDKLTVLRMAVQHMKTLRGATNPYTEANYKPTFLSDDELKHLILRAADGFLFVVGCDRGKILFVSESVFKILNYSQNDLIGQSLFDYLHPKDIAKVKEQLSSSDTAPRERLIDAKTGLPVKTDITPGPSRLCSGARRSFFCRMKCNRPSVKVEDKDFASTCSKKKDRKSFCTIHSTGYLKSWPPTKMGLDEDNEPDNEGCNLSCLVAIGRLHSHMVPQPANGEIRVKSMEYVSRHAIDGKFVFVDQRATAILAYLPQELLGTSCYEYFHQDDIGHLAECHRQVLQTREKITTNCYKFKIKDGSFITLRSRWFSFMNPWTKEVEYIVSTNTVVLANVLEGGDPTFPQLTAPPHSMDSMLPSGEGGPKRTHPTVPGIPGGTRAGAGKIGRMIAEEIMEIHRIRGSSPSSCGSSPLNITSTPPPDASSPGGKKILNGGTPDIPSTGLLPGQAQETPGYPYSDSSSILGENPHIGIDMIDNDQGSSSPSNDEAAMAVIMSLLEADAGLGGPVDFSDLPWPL

Target: BMAL1 (mouse (endogenous in mIEC)) (UniProt Q9WTL8)
Experiment: co-IP

B1: CLOCK (protein, UniProt O08785 1-855)
chain: MVFTVSCSKMSSIVDRDDSSIFDGLVEEDDKDKAKRVSRNKSEKKRRDQFNVLIKELGSMLPGNARKMDKSTVLQKSIDFLRKHKETTAQSDASEIRQDWKPTFLSNEEFTQLMLEALDGFFLAIMTDGSIIYVSESVTSLLEHLPSDLVDQSIFNFIPEGEHSEVYKILSTHLLESDSLTPEYLKSKNQLEFCCHMLRGTIDPKEPSTYEYVRFIGNFKSLTSVSTSTHNGFEGTIQRTHRPSYEDRVCFVATVRLATPQFIKEMCTVEEPNEEFTSRHSLEWKFLFLDHRAPPIIGYLPFEVLGTSGYDYYHVDDLENLAKCHEHLMQYGKGKSCYYRFLTKGQQWIWLQTHYYITYHQWNSRPEFIVCTHTVVSYAEVRAERRRELGIEESLPETAADKSQDSGSDNRINTVSLKEALERFDHSPTPSASSRSSRKSSHTAVSDPSSTPTKIPTDTSTPPRQHLPAHEKMTQRRSSFSSQSINSQSVGPSLTQPAMSQAANLPIPQGMSQFQFSAQLGAMQHLKDQLEQRTRMIEANIHRQQEELRKIQEQLQMVHGQGLQMFLQQSNPGLNFGSVQLSSGNSNIQQLTPVNMQGQVVPANQVQSGHISTGQHMIQQQTLQSTSTQQSQQSVMSGHSQQTSLPSQTPSTLTAPLYNTMVISQPAAGSMVQIPSSMPQNSTQSATVTTFTQDRQIRFSQGQQLVTKLVTAPVACGAVMVPSTMLMGQVVTAYPTFATQQQQAQTLSVTQQQQQQQQQPPQQQQQQQQSSQEQQLPSVQQPAQAQLGQPPQQFLQTSRLLHGNPSTQLILSAAFPLQQSTFPPSHHQQHQPQQQQQLPRHRTDSLTDPSKVQPQ
binding: binds
